Screen size: about 330,000 compounds; about 7,700 (2.3%) were called active. This list was built around the results that the source calls inconclusive (neither active nor inactive); the mix of calls is not that of the screen. The call rests on the fitted dose curve; in most records, active means well fitted inhibition curve with a large enough effect; inconclusive means small, poorly fitted or top-dose-only effect, or effect the other way; inactive means flat fitted curve, though single readings scatter. Where the call is inconclusive, the potency comes from a doubtful curve fit.
assay: qHTS screen for small molecules that inhibit ELG1-dependent DNA repair in human embryonic kidney (HEK293T) cells expressing luciferase-tagged ELG1; conditions: HEK293T ELG1-luciferase reporter, luminescence, 16 h, DNA damage induced by 5-fluorouridine; activity change, negative = inhibition: at 46.1 µM (top of the series); further: nearly all actives have a fitted effect of over 55% in size
Method in brief: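 HEK293T cells expressing luciferase-tagged ELG1 (2,000/well) received 5-Fluorouridine plus compound or DMSO for 16 hr at 37 °C. Luciferase was read by ONE-Glo luminescence after 30 min at room temperature.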
On the % scale 0 is the no-effect control and ±100 the full control effect; potency means the concentration at half of the fitted maximal effect.

SMILES	Potency	activity change, negative = inhibition
CCCc1sc(N/N=C/c2ccccn2)nc1-c1ccc(Br)cc1	inconclusive: 6.51 µM [inhibitor, single point]	–
O=C(NC(=S)Nc1cccnc1Cl)c1ccco1	inconclusive: 23.1 µM [activator, partial curve]	–
Cc1ccnc(N2CCC(C(=O)Nc3cccc(C(F)(F)F)c3)CC2)n1	active: 16.4 µM	–
c1ccc2oc(CCc3nc4ccccc4o3)nc2c1	inconclusive: 16.4 µM [activator, single point]	–
COC(=O)c1c(C(=O)OC)c(-c2ccc(Cl)c(Cl)c2)n2c1CCC2	inconclusive: 23.1 µM [inhibitor, single point]	–
Cc1ccc(Nc2nc3c([nH]2)c(=O)[nH]c(=O)n3C)cc1	inconclusive: 18.4 µM [activator, partial curve, poor fit]	–
COCCN(CCOC)S(=O)(=O)c1ccc(C(=O)Nc2nnc(COC)o2)cc1	inactive	–
COc1ccc(COCC(O)CN2CCc3ccccc3C2)cc1OC (stereo not drawn)	inactive	–
Cc1ccc(N2C(=O)CC(n3ccnc3)C2=O)cc1C (stereo not drawn)	inactive	–
CCOC(=O)CCC(=O)Nc1ccc(S(=O)(=O)N2CCC(C)CC2)cc1	inactive	–
O=C(CNc1cccc(S(=O)(=O)N2CCCCC2)c1)Nc1ccccc1F	inconclusive: 14.6 µM [inhibitor, partial curve, poor fit]	–
O=C(CSCc1ccc(F)cc1)N1CCN(c2ccccc2)CC1	inconclusive: 11.6 µM [activator, partial curve, poor fit]	–
Cc1ccc(C2(C)CC(C)(C)N(C(=O)CSc3nnc(C)s3)c3ccccc32)cc1 (stereo not drawn)	inactive	–
CCN(CC)S(=O)(=O)c1ccc(NC(=O)c2ccc(Cl)nc2)cc1	inconclusive: 29.1 µM [inhibitor, single point]	–
Nc1cc(N)nc(SCC(=O)N2CCN(S(=O)(=O)c3ccccc3)CC2)n1	inactive	–
O=C(CC1C(=O)NCCN1C(=O)Nc1ccc(F)cc1F)Nc1cc(Cl)ccc1Cl (stereo not drawn)	inactive	–
Cc1ccsc1C(=O)OCC(=O)NCC1CCCO1 (stereo not drawn)	inconclusive: 18.4 µM [activator, single point]	–
O=C(Nc1ccccc1)c1cccc(N2C(=O)C3C4C=CC(C5CC45)C3C2=O)c1 (stereo not drawn)	inconclusive: 23.1 µM [inhibitor, partial curve]	–
COc1cccc(OC)c1OC(=O)C1CC(=O)N(c2ccc3c(c2)OCCO3)C1 (stereo not drawn)	inconclusive: 9.2 µM [activator, partial curve]	–
CC(=O)Nc1ccc(-c2cn3cccnc3n2)cc1	inconclusive: 7.31 µM [activator, partial curve]	–
COc1ccc(C(=O)CSc2nnc(CNC(=O)c3ccccc3)n2C)cc1	inactive	–
Cc1noc(C)c1C(=O)OCC(=O)NCc1ccc(Cl)cc1	inactive	–
CCCCNc1nc2c(c(=O)n(C)c(=O)n2C)n1Cc1cccc(OC)c1	active: 5.17 µM	–
CC(=O)c1cccc(NC(=O)CSc2ccc(-c3ccc4c(c3)OCO4)nn2)c1	inconclusive: 6.51 µM [activator, partial curve, poor fit]	–
CCNC(=S)N1CCN(c2nc(-c3ccc(F)cc3)cs2)CC1	inconclusive: 23.1 µM [inhibitor, single point]	–

SMILES	Potency	activity change, negative = inhibition
COc1ccc(N2CCN(C(=O)CN(Cc3ccc(Cl)cc3)S(C)(=O)=O)CC2)cc1	inconclusive: 23.1 µM [inhibitor, partial curve, poor fit]	–
CCC(=O)N1CCCc2cc(S(=O)(=O)CCC(=O)Nc3ccccc3C)ccc21	inactive	–
O=C(Cn1cc([N+](=O)[O-])ccc1=O)N1CCc2ccccc2C1	inactive	–
Oc1ccc(N=Nc2ccccc2)o1	inactive	–
Cc1cc(Nc2nnnn2-c2ccccc2)n(-c2ccc(Cl)cc2)n1	inconclusive: 11.6 µM [inhibitor, partial curve, poor fit]	–
O=C(CNC(=O)c1ccc(N2C(=O)c3ccccc3C2=O)cc1)OCC(=O)c1ccc(Cl)cc1	inactive	–
CCc1ccc(-c2nc(SCC(=O)NC3CCS(=O)(=O)C3)n[nH]2)cc1 (stereo not drawn)	inconclusive: 9.2 µM [activator, partial curve, poor fit]	–
Cc1cc(Br)c(Cl)cc1NC(=O)CN1C(=O)C2C3CC(c4ccccc4)C(C3)C2C1=O (stereo not drawn)	inconclusive: 20.6 µM [inhibitor, single point]	–
Cc1oc(-c2ccc(Cl)cc2)nc1CN1CCCC(C(=O)N2CCN(C(=O)c3ccco3)CC2)C1 (stereo not drawn)	active: 4.11 µM	–
FC(F)(F)c1nc2ccccc2n2c(-c3c(Cl)cccc3Cl)nnc12	inactive	–
O=C(CN1CCOCC1)N/N=C/c1ccc(C(=O)O)cc1	inconclusive: 29.1 µM [activator, partial curve, poor fit]	–
COc1cc(C(=O)ON=C2C3CC4CC(C3)CC2C4)cc(OC)c1OC	active: 23.1 µM	–
Nc1c(NCCc2ccccc2)c2ccccc2oc1=O	inconclusive: 20.6 µM [activator, single point]	–
Cn1c(-c2ccc(N)cc2)nc2ccccc21	inconclusive: 18.4 µM [activator, partial curve]	–
COc1ccccc1Oc1ccc(N2CC(C(=O)OCC(=O)c3ccccc3)CC2=O)cc1 (stereo not drawn)	inconclusive: 0.92 µM [inhibitor, full curve, poor fit]	–
CCOc1ccc(N(CC(=O)NC2CC3CCC2C3)S(=O)(=O)c2ccc(C)cc2)cc1 (stereo not drawn)	inconclusive: 29.1 µM [inhibitor, single point]	–
O=c1c2ccccc2nc(/C=C/c2cc(Br)ccc2O)n1CCCO	inconclusive: 16.4 µM [inhibitor, partial curve]	–
O=C(CCc1n[nH]c(=O)[nH]c1=O)N/N=C/c1ccco1	inactive	–
O=C(NCc1ccco1)C(c1cccs1)N(C(=O)Cc1cccs1)c1ccccc1 (stereo not drawn)	inconclusive: 20.6 µM [inhibitor, partial curve, poor fit]	–
Cc1ccc(NC(=O)CC2=NC(=O)C(CC(=O)Nc3ccccc3C)S2)cc1 (stereo not drawn)	inactive	–
c1cncc(CNc2ncnc3sccc23)c1	active: 20.6 µM	–
O=C1CCC(C(=O)N2CCCCCC2)CN1Cc1cccc(C(F)(F)F)c1 (stereo not drawn)	inactive	–
CCOC(=O)C1=C(c2ccccc2)NC(SCC(=O)Nc2cccc(C)c2)=C(C#N)C1c1ccco1 (stereo not drawn)	inconclusive: 6.51 µM [inhibitor, single point]	–
O=C(Nc1ccc(F)cc1)C(c1ccccc1)N1CCN(C(=O)c2ccco2)CC1 (stereo not drawn)	–	inconclusive: 28% [activator]
CNC(=O)c1ccsc1NC(=O)c1ccccc1	inconclusive: 11.6 µM [activator, single point]	–

As entered above.
Potency, O=C(CN1CCOCC1)N/N=C/c1ccc(C(=O)O)cc1 is entered as inconclusive: 29.1 µM [activator, partial curve, poor fit]
Potency, Cn1c(-c2ccc(N)cc2)nc2ccccc21 is entered as inconclusive: 18.4 µM [activator, partial curve]

A second format for 2 compounds above.
SMILES | Potency | activity change, negative = inhibition
O=c1c2ccccc2nc(/C=C/c2cc(Br)ccc2O)n1CCCO | inconclusive: 16.4 µM [inhibitor, partial curve] | –
O=C(CCc1n[nH]c(=O)[nH]c1=O)N/N=C/c1ccco1 | inactive | –

Later entries

SMILES	Potency	activity change, negative = inhibition
CCN(CC)S(=O)(=O)c1ccc(O)c(NC(=O)CN2CCc3ccccc3C2)c1	inactive	–
O=C(Nc1ccc2c(c1)CCCN2C(=O)c1ccccc1)c1ccccc1	inconclusive: 29.1 µM [inhibitor, single point]	–
COc1ccc(N(C)S(=O)(=O)c2cccc(C(=O)OCC(=O)N3CC(C)CC(C)C3)c2)cc1 (stereo not drawn)	inconclusive: 20.6 µM [inhibitor, single point]	–
COc1ccc(OC)c2sc(NNC(=O)C3COc4ccccc4O3)nc12 (stereo not drawn)	inconclusive: 3.66 µM [activator, single point]	–
O=[N+]([O-])c1nn(-c2ccc3c(c2)OCCO3)n(O)c1=NC1CCCCC1	inconclusive: 9.2 µM [activator, partial curve]	–
CCOc1ccc2nc(NS(=O)(=O)Cc3ccccc3)sc2c1	inconclusive: 29.1 µM [activator, single point]	–
C/C(=C\c1ccccc1)C(=O)NCCc1ccccc1	inconclusive: 4.11 µM [activator, full curve]	–
CC(C)(C)n1nnnc1C(c1ccc(Cl)cc1)N(Cc1cccnc1)Cc1ccco1 (stereo not drawn)	inactive	–
Cc1ccc(N2CC(C(=O)OCC(=O)Nc3ccccc3F)CC2=O)cc1 (stereo not drawn)	inactive	–
Cc1cccc(OCCCC(=O)NNC(=O)c2cccc(N(C)C)c2)c1	inconclusive: 20.6 µM [activator, partial curve]	–
COc1ccc(Oc2cnn(-c3ccccc3)c(=O)c2Br)cc1	inactive	–
O=C(CSc1nc(-c2ccccc2)nc2c1CCCC2)N1CCOCC1	inconclusive: 16.4 µM [inhibitor, single point]	–
CC(=O)Nc1ccc(Nc2ccc([N+](=O)[O-])cn2)cc1	inactive	–
Cc1nn(C)cc1C(C)NC(=O)c1cc(COc2c(F)cccc2F)on1 (stereo not drawn)	inactive	–
CCOC(=O)c1c(C)[nH]c(N=Nc2cccc(OC)c2)c1C	inconclusive: 5.8 µM [activator, partial curve]	–
CCCCn1c(N)c(N(CCOC)C(=O)C2CC(=O)N(Cc3ccco3)C2)c(=O)[nH]c1=O (stereo not drawn)	inactive	–
COc1ccc(C(=O)Nc2nc3ccc(OC)cc3s2)cc1	inconclusive: 1.83 µM [activator, partial curve]	–
COc1ccc(NC(=O)CCC(=O)Nc2nnc(CC(C)C)s2)cc1Cl	inactive	–
COc1ccc(Cl)cc1C(=O)NNC(=O)c1cccs1	inconclusive: 14.6 µM [activator, partial curve]	–
O=C(NC1CCN(S(=O)(=O)c2ccc(Cl)cc2)CC1)C1CCCCC1	inactive	–
O=C(Nc1ccc(Cl)c(Cl)c1)Nc1ccccn1	inconclusive: 4.11 µM [activator, full curve]	–
COc1cccc(-c2csc(N3CCN(C(=S)Nc4ccccc4C)CC3)n2)c1	inactive	–
C/C=C\C=C/C(=O)Nc1cccc(C2=NOC3(C2)C[C@@H](C(N)=O)N(C(=O)[C@H]2CCC(=O)N2)C3)c1 (stereo partly drawn)	inconclusive: 14.6 µM [activator, single point]	–
